Experimental data: PubChem BioAssay AID2685 (National Center for Advancing Translational Sciences (NCATS), 2010)
About 2,100 (0.66%) of roughly 320,000 compounds were called active. The shares of active, inactive and inconclusive entries below differ from those in the screen. Calls follow the shape of the dose curve; as a rule, active = well fitted inhibition curve with a large enough effect in the signal ratio, with a control signal flat (not every such curve was filed as active); inconclusive = small, poorly fitted or top-dose-only effect, or effect the other way, or a change in a side signal; inactive = flat fitted curve, though single readings scatter; the % refers to the signal ratio. A potency beside an inconclusive call is a rough fit, not a confirmed value.

Assay: qHTS Assay for Lipid Storage Modulators in Drosophila S3 Cells
Details: BODIPY lipid droplet fluorescence, 18-24 h, cells fed with added oleic acid; lipid storage change, negative = inhibition: at 46.1 µM (top of the series) unless noted
Method in brief: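 Drosophila S3 cells loaded with oleic acid (400 uM, as added) and compounds at several concentrations; lipid droplets imaged by 488-nm laser-scanning cytometry, 500–530 nm intensity and object ratio to cell channel. Percent activity normalized to 20 uM Triacsin C.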
% is scaled to controls: 0 for no effect and ±100 for the full control effect; potency is read from the fitted curve at half-maximal effect.

SMILES | Potency | lipid storage change, negative = inhibition
CCCCNC(=O)CO/N=C(\C)c1cc2ccccc2o1 | inconclusive: 5.8 µM [activator, partial curve, poor fit] | –
CCN1CCN(CCC(=O)Nc2cccc(C)c2)CC1 | – | inconclusive: 19.5%
Cc1cc(C(=O)NCCN2C(=O)S/C(=C\c3cccs3)C2=O)ccc1[N+](=O)[O-] | – | inconclusive: 22.1%
CC(NC(=O)CN(C)S(=O)(=O)c1ccc2c(c1)c(=O)n(C)c(=O)n2C)c1ccccc1 (configuration not stated) | inconclusive: 29.1 µM [falling, single point] | –
O=C(CN1C(=O)NC(c2ccccc2)(c2ccccc2)C1=O)NCC(=O)Nc1ccc(F)cc1 | – | inconclusive: 11.6%
Cc1nn(-c2ccccc2)nc1C(=O)OCC(=O)N1CCC(C)CC1 | inconclusive: 29.1 µM [falling, single point] | –
COc1ccc(C(=S)N2CCC(C(N)=O)CC2)cc1Br | – | inconclusive: 1.33%
O=c1cc(CSc2ccccn2)c2ccccc2[nH]1 | – | inconclusive: 93.3%
O=C(COc1ccc(S(=O)(=O)N2CCCCC2)cc1)N1CCOCC1 | – | inconclusive: 7.11%
C=CCN1C(=O)C2(OCCCO2)c2ccccc21 | – | inactive: -18.8%
Cc1ccccc1S(=O)(=O)Cc1ccc(C(=O)NC2CCCCCC2)o1 | – | inconclusive: -47.7%
Cc1ccc(-n2c(C)nn(CCOc3ccccc3)c2=O)cc1 | – | inconclusive: -62.4% [cytotoxic] [at 0.00295 µM]
COc1ccc(/C=N/N=C2\SCC(=O)N2c2c(C)n(C)n(-c3ccccc3)c2=O)cc1OC | – | inconclusive: 63.5%
CCOc1ccccc1NC1=NCC(=O)N1Cc1ccc(F)cc1 | – | inconclusive: 15%
CCn1c(COc2ccc(Cl)cc2)nnc1SC1CCc2ccccc2C1=O (configuration not stated) | – | inconclusive: 10.7%
CCOC(=O)C1CCCN(C(=O)c2cc(Cl)ccc2NC(=O)C2=C(C)OCCS2)C1 (configuration not stated) | inconclusive: 6.51 µM [falling, partial curve, poor fit] | –
COc1cc(C(=O)OCC(=O)N2c3ccccc3NC(=O)C2(C)C)ccc1OCC(C)C | – | inconclusive: 4.93%
CCN(CC)S(=O)(=O)c1ccc(C(=O)/C=C/c2ccc(-c3ccc([N+](=O)[O-])cc3)o2)cc1 | – | inactive: -2.16%
Cc1cc(NCC2CCCO2)n2c(nc3ccccc32)c1C#N (configuration not stated) | – | inconclusive: 3.78%
Cc1ccc(N2C(=O)N(CC(=O)NCc3ccccc3Cl)C(=O)C2C)cc1 (configuration not stated) | – | inconclusive: 1.4%
CCn1nc(C)cc1C(=O)Sc1ccc(Cl)cc1Cl | inconclusive: 0.82 µM [rising, single point] | –
CCOC(=O)C1CCN(C(=O)C2(NC(=O)Nc3ccccc3C)CCCCC2)CC1 | – | inconclusive: -100%

2 compounds drawn at random from those above, as already listed:
SMILES | Potency | lipid storage change, negative = inhibition
CCOc1ccccc1NC1=NCC(=O)N1Cc1ccc(F)cc1 | – | inconclusive: 15%
CCn1nc(C)cc1C(=O)Sc1ccc(Cl)cc1Cl | inconclusive: 0.82 µM [rising, single point] | –
